Data reported in publication PMC7819943, “Rice protein-binding microarrays: a tool to detect cis-acting elements near promoter regions in rice”.
Some of the results follow.

What follows are sequences tested against T1, OsSMF1 (Oryza sativa, UniProt Q6ZLB0 1-436) (assay: protein-binding microarray (RPBM); PBS, 2% BSA, 51.3 ng/ul salmon testes DNA, 50 uM zinc acetate, 200 nM TF, 25 C, 1 h; high values mean tight binding). Conditions: protein: recombinant; tags: N-terminal polyhistidine and DsRed monomer fusion (pET32a); chain copies: 2; label: CyDye5-dUTP incorporated in the synthesized complementary strand; 3' TTTTT single-stranded linker to array surface; dsDNA, one strand shown.
T1 sequence: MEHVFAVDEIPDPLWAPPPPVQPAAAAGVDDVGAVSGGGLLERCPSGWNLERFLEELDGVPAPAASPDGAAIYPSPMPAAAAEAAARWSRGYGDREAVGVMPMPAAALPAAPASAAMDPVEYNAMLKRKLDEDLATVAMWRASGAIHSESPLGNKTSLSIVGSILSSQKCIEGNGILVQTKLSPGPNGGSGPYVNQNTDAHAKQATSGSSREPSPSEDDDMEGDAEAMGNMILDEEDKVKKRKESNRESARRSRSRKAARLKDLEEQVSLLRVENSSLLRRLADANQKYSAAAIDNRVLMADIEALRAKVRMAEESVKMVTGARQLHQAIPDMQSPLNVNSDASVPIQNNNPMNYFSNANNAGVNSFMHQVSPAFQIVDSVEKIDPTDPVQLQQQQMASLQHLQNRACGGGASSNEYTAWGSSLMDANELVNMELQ
Method in brief: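 Ni–NTA purification followed expression in E. coli BL21-CodonPlus of transcription factors fused N-terminally to a polyhistidine tag and DsRed. At 200 nM in PBS with 2% BSA, salmon testes DNA and 50 µM zinc acetate, the protein was incubated for 1 h at 25 °C with a custom Agilent array that had been primer-extended with Cy5-dUTP and blocked with 2% BSA. After washing, the array was read on an Axon 4000B scanner. The binding signal is per-feature fluorescence intensity in arbitrary units.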
For “ACAATATTATATCCAACGTCAACACCAGACTATATCAATGCGGAGTCACCTAGTGCAG”, the binding signal was 4190 fluorescence intensity (a.u.). For “AGCGGGCCCACCAAGTCAGCCTCACACCTTCTTCTTCTTCCGGAGTCACCTAGTGCAG”, the binding signal was 4150 fluorescence intensity (a.u.). With “CTGTTTGCTCCCTGACGGAGAGTGAAGGCTGAAGAGTTAACGGAGTCACCTAGTGCAG” the binding signal was 4180 fluorescence intensity (a.u.). For “GCTGGCTACTGTGTGTGTCGTGTGAGTAGGGAGATGTCGTCGGAGTCACCTAGTGCAG”, the binding signal was 3370 fluorescence intensity (a.u.). With “GGGGCTCGTCGCCATGGCATTCACGGCGGGGATGCGACATCGGAGTCACCTAGTGCAG” the binding signal was 31100 fluorescence intensity (a.u.). “ATGCATGGAAATTAATTAATCTAGCTCGTTGTCGACGTCACGGAGTCACCTAGTGCAG” was tested, and the binding signal was 4280 fluorescence intensity (a.u.). In the case of “ACCTAGTAATATTATTATTTATTTGTACATTGACGCGTGGCGGAGTCACCTAGTGCAG”, the binding signal is reported as 13800 fluorescence intensity (a.u.). For “GAGCGTACCTGTCACCGTCTCATGTGTAATAGGCTAACAGCGGAGTCACCTAGTGCAG”, the binding signal was 4260 fluorescence intensity (a.u.). For “ATGAGGACACCTCACCACTATTGCTTGCAGAACCACAGATCGGAGTCACCTAGTGCAG”, the binding signal was 4500 fluorescence intensity (a.u.). With “TTTTGTATTTCCTCTCGTAGACTTTCTTTGGTCTTACATTCGGAGTCACCTAGTGCAG” the binding signal was 19700 fluorescence intensity (a.u.). “CTATGTGTGACTATGAGGTGGAGCAAAGGGATGTGATTGACGGAGTCACCTAGTGCAG” was tested, and the binding signal was 4050 fluorescence intensity (a.u.). With “TCGTTCACGACTTTTGCAGACGGGCCATATGTGACTCGAGCGGAGTCACCTAGTGCAG” the binding signal was 3440 fluorescence intensity (a.u.). “CTTCGACCCCTTATGACGTCGACTTCATGGACGAGGACGCCGGAGTCACCTAGTGCAG” was tested, and the binding signal was 3630 fluorescence intensity (a.u.). “TTATTTGGTTGATAATTACGTGTCTACGTTTATTTGTTACCGGAGTCACCTAGTGCAG” was tested, and the binding signal was 6100 fluorescence intensity (a.u.). With “AATAATGGCTTTCGTTGTCCTTGTCACATCATAAACTTCTCGGAGTCACCTAGTGCAG” the binding signal was 4640 fluorescence intensity (a.u.). In the case of “CACAATACCCACGCGTCTCCACTCTACCCTCTCCCACTGCCGGAGTCACCTAGTGCAG”, the binding signal is reported as 4160 fluorescence intensity (a.u.). For “TGCCTGAAATGTGACCGTACTTTGCATGGACAGGTTATGGCGGAGTCACCTAGTGCAG”, the binding signal was 3510 fluorescence intensity (a.u.). “TTCAGCCTGTCATCGTCAATTCGTCATCAGTTCATCGCTCCGGAGTCACCTAGTGCAG” was tested, and the binding signal was 5390 fluorescence intensity (a.u.). For “TTAGTTTTACACGTAAATCGGACGTATGACGTGGGATTTCCGGAGTCACCTAGTGCAG”, the binding signal was 14500 fluorescence intensity (a.u.). For “ACATACATATATATATATATATATACATACATATATATATCGGAGTCACCTAGTGCAG”, the binding signal was 3740 fluorescence intensity (a.u.). For “GACGGTCCAGATCACGCCATATCATCCCTACCACACACTCCGGAGTCACCTAGTGCAG”, the binding signal was 3310 fluorescence intensity (a.u.). In the case of “TCTGGTTTTGTAGTTTAGGGTTATGGTTTAGATTTCGATCCGGAGTCACCTAGTGCAG”, the binding signal is reported as 3850 fluorescence intensity (a.u.). In the case of “AGCGCTAGATTGGCCATCGACCACATCACCAACAACTCTCCGGAGTCACCTAGTGCAG”, the binding signal is reported as 3620 fluorescence intensity (a.u.). For “ATCCGCCCTCCACCCGCCGCTGCCGACGTGGTCCGTCCTTCGGAGTCACCTAGTGCAG”, the binding signal was 7810 fluorescence intensity (a.u.). In the case of “ACGCTGCCATGTCAGCGAGATTGGCGTGACAATATTGTTTCGGAGTCACCTAGTGCAG”, the binding signal is reported as 7920 fluorescence intensity (a.u.). With “CTGAATGAGATGATGTAATGGTAGATTTGTGGACAGGAAACGGAGTCACCTAGTGCAG” the binding signal was 3610 fluorescence intensity (a.u.). For “AATGTTGTTTGGCTTATGTGTTCCTTATTTCCATCATCTGCGGAGTCACCTAGTGCAG”, the binding signal was 13300 fluorescence intensity (a.u.). With “AACCGAATCCAATCGAGCTCAGGACGAGGCGGAGGAGGAGCGGAGTCACCTAGTGCAG” the binding signal was 42900 fluorescence intensity (a.u.). In the case of “GCATCCTTTTCATTGGCCTTTGCGTGTAATTTGGGGCATGCGGAGTCACCTAGTGCAG”, the binding signal is reported as 4710 fluorescence intensity (a.u.). In the case of “TTTAATTCCATGAATGGAACCCTAGATGAGCTGGAACTTGCGGAGTCACCTAGTGCAG”, the binding signal is reported as 3870 fluorescence intensity (a.u.). For “AGCTCAATGCCATTACGCTAACAGTTCATCGCTCAATGTTCGGAGTCACCTAGTGCAG”, the binding signal was 21000 fluorescence intensity (a.u.). For “CCATGCTGCAGCAGAAGCTTCATCCAAGCCATGGATGACTCGGAGTCACCTAGTGCAG”, the binding signal was 3420 fluorescence intensity (a.u.). For “CCTAAATCCGCTCCCCATCTTCCCTGTGACTCTGTTGGCTCGGAGTCACCTAGTGCAG”, the binding signal was 3410 fluorescence intensity (a.u.). “GTGGCACACCTCGCTGCTAATGGCGCTGCTAGCACGACTACGGAGTCACCTAGTGCAG” was tested, and the binding signal was 3260 fluorescence intensity (a.u.). With “CCAGTTAGGCCCACGAGTAGGTGGAACGACCACCTCACGGCGGAGTCACCTAGTGCAG” the binding signal was 3710 fluorescence intensity (a.u.). For “GGCCTGGCCCAAATTTTCCTGCGGCCCACGTACTCCATCCCGGAGTCACCTAGTGCAG”, the binding signal was 4290 fluorescence intensity (a.u.). “ACTCGGAATCTTCAATCTTGGACACGTGAGCTGGGCTTCTCGGAGTCACCTAGTGCAG” was tested, and the binding signal was 3690 fluorescence intensity (a.u.). In the case of “CGGGAGAGGGTCGGAGAGACAAGCAGCGGCGGCGGCGGCGCGGAGTCACCTAGTGCAG”, the binding signal is reported as 3510 fluorescence intensity (a.u.). “TTGATCGAGTGCCATTTTATATACACCGTTGTGCATTTCCCGGAGTCACCTAGTGCAG” was tested, and the binding signal was 17300 fluorescence intensity (a.u.). With “CAAAAGACCGAAACCTCCCCGCGTCCCAGTCACACGCGCTCGGAGTCACCTAGTGCAG” the binding signal was 5720 fluorescence intensity (a.u.). “TCTGCTAGTGCATCATCACTCAACTCCCCTGATCTATATGCGGAGTCACCTAGTGCAG” was tested, and the binding signal was 3290 fluorescence intensity (a.u.). “GCCACCTCGTTGACCTCACCGCGTAGGTGGCGCACCTCCGCGGAGTCACCTAGTGCAG” was tested, and the binding signal was 3480 fluorescence intensity (a.u.).
